Test: general procedure: Fmoc solid-phase peptide synthesis; Wang resin (PHB on polystyrene) preloaded with the C-terminal amino acid; HCTU
Conditions: conjugation step

Substance | conjugation yield [%]
Azac-LFEEGLLT | 96
TW-ELTLGEFL-FAM | 10
